Measurements published in publication doi:10.1101/179564.
Results are given in words; binding and its absence hold for the method and conditions named. Some binding calls cover weakened binding; strength is not graded here.

Chains of the proteins cited; added tags and fusions are not shown.
UniProt P11484: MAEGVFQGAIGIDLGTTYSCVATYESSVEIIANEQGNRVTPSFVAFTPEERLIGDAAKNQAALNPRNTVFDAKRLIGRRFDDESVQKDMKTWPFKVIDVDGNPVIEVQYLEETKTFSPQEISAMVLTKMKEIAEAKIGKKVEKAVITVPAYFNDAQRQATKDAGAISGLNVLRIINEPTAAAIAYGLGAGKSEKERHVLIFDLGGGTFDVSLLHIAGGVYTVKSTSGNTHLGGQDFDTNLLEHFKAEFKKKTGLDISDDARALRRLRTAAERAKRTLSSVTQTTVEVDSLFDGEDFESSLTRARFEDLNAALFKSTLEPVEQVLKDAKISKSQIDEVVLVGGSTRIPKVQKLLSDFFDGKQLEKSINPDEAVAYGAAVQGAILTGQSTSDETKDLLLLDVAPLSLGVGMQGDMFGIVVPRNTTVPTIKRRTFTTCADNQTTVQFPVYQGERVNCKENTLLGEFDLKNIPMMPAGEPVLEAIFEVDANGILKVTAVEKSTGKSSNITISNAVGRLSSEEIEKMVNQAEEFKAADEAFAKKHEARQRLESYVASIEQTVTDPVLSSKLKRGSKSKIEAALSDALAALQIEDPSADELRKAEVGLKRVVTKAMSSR

B1: Hxt1 nascent chains at the ribosome (low-affinity hexose transporter) (protein, UniProt P32465 1-570)
chain: MNSTPDLISPQKSNSSNSYELESGRSKAMNTPEGKNESFHDNLSESQVQPAVAPPNTGKGVYVTVSICCVMVAFGGFIFGWDTGTISGFVAQTDFLRRFGMKHHDGSHYLSKVRTGLIVSIFNIGCAIGGIVLAKLGDMYGRRIGLIVVVVIYTIGIIIQIASINKWYQYFIGRIISGLGVGGITVLSPMLISEVAPSEMRGTLVSCYQVMITLGIFLGYCTNFGTKNYSNSVQWRVPLGLCFAWALFMIGGMMFVPESPRYLVEAGRIDEARASLAKVNKCPPDHPYIQYELETIEASVEEMRAAGTASWGELFTGKPAMFQRTMMGIMIQSLQQLTGDNYFFYYGTIVFQAVGLSDSFETSIVFGVVNFFSTCCSLYTVDRFGRRNCLMWGAVGMVCCYVVYASVGVTRLWPNGQDQPSSKGAGNCMIVFACFYIFCFATTWAPIAYVVISECFPLRVKSKCMSIASAANWIWGFLISFFTPFITGAINFYYGYVFMGCMVFAYFYVFFFVPETKGLSLEEVNDMYAEGVLPWKSASWVPVSKRGADYNADDLMHDDQPFYKSLFSRK
B2: Arn3/Sit1 nascent chains at the ribosome (protein, UniProt P39980 1-628)
chain: MDPGIANHTLPEEFEEVVVPEMLEKEVGAKVDVKPTLTTSSPAPSYIELIDPGVHNIEIYAEMYNRPIYRVALFFSLFLIAYAYGLDGNIRYTFQAYATSSYSQHSLLSTVNCIKTVIAAVGQIFFARLSDIFGRFSIMIVSIIFYSMGTIIESQAVNITRFAVGGCFYQLGLTGIILILEVIASDFSNLNWRLLALFIPALPFIINTWISGNVTSAIDANWKWGIGMWAFILPLACIPLGICMLHMRYLARKHAKDRLKPEFEALNKLKWKSFCIDIAFWKLDIIGMLLITVFFGCVLVPFTLAGGLKEEWKTAHIIVPEVIGWVVVLPLYMLWEIKYSRHPLTPWDLIQDRGIFFALLIAFFINFNWYMQGDYMYTVLVVAVHESIKSATRITSLYSFVSVIVGTILGFILIKVRRTKPFIIFGISCWIVSFGLLVHYRGDSGAHSGIIGSLCLLGFGAGSFTYVTQASIQASAKTHARMAVVTSLYLATYNIGSAFGSSVSGAVWTNILPKEISKRISDPTLAAQAYGSPFTFITTYTWGTPERIALVMSYRYVQKILCIIGLVFCFPLLGCAFMLRNHKLTDSIALEGNDHLESKNTFEIEEKEESFLKNKFFTHFTSSKDRKD
B3: Arn4/Enb1 nascent chains at the ribosome (protein, UniProt Q08299 1-606)
chain: MLETDHSRNDNLDDKSTVCYSEKTDSNVEKSTTSGLRRIDAVNKVLSDYSSFTAFGVTFSSLKTALLVALFLQGYCTGLGGQISQSIQTYAANSFGKHSQVGSINTVKSIVASVVAVPYARISDRFGRIECWIFALVLYTIGEIISAATPTFSGLFAGIVIQQFGYSGFRLLATALTGDLSGLRDRTFAMNIFLIPVIINTWVSGNIVSSVAGNVAPYKWRWGYGIFCIIVPISTLILVLPYVYAQYISWRSGKLPPLKLKEKGQTLRQTLWKFADDINLIGVILFTAFLVLVLLPLTIAGGATSKWREGHIIAMIVVGGCLGFIFLIWELKFAKNPFIPRVYLGDPTIYVALLMEFVWRLGLQIELEYLVTVLMVAFGESTLSAQRIAQLYNFLQSCTNIVVGIMLHFYPHPKVFVVAGSLLGVIGMGLLYKYRVVYDGISGLIGAEIVVGIAGGMIRFPMWTLVHASTTHNEMATVTGLLMSVYQIGDAVGASIAGAIWTQRLAKELIQRLGSSLGMAIYKSPLNYLKKYPIGSEVRVQMIESYSKIQRLLIIVSISFAAFNAVLCFFLRGFTVNKKQSLSAEEREKEKLKIKQQSWLRRVIGY
B4: Hxt3 nascent chains at the ribosome (protein, UniProt P32466 1-567)
chain: MNSTPDLISPQKSSENSNADLPSNSSQVMNMPEEKGVQDDFQAEADQVLTNPNTGKGAYVTVSICCVMVAFGGFVFGWDTGTISGFVAQTDFLRRFGMKHKDGSYYLSKVRTGLIVSIFNIGCAIGGIILAKLGDMYGRKMGLIVVVVIYIIGIIIQIASINKWYQYFIGRIISGLGVGGIAVLSPMLISEVAPKEMRGTLVSCYQLMITLGIFLGYCTNFGTKNYSNSVQWRVPLGLCFAWALFMIGGMTFVPESPRYLVEAGQIDEARASLSKVNKVAPDHPFIQQELEVIEASVEEARAAGSASWGELFTGKPAMFKRTMMGIMIQSLQQLTGDNYFFYYGTTVFNAVGMSDSFETSIVFGVVNFFSTCCSLYTVDRFGRRNCLLYGAIGMVCCYVVYASVGVTRLWPNGEGNGSSKGAGNCMIVFACFYIFCFATTWAPIAYVVISETFPLRVKSKAMSIATAANWLWGFLIGFFTPFITGAINFYYGYVFMGCMVFAYFYVFFFVPETKGLTLEEVNDMYAEGVLPWKSASWVPTSQRGANYDADALMHDDQPFYKKMFGKK
B5: Itr1 nascent chains at the ribosome (protein, UniProt P30605 1-584)
chain: MGIHIPYLTSKTSQSNVGDAVGNADSVEFNSEHDSPSKRGKITLESHEIQRAPASDDEDRIQIKPVNDEDDTSVMITFNQSLSPFIITLTFVASISGFMFGYDTGYISSALISIGTDLDHKVLTYGEKEIVTAATSLGALITSIFAGTAADIFGRKRCLMGSNLMFVIGAILQVSAHTFWQMAVGRLIMGFGVGIGSLIAPLFISEIAPKMIRGRLTVINSLWLTGGQLVAYGCGAGLNYVNNGWRILVGLSLIPTAVQFTCLCFLPDTPRYYVMKGDLARATEVLKRSYTDTSEEIIERKVEELVTLNQSIPGKNVPEKVWNTIKELHTVPSNLRALIIGCGLQAIQQFTGWNSLMYFSGTIFETVGFKNSSAVSIIVSGTNFIFTLVAFFSIDKIGRRTILLIGLPGMTMALVVCSIAFHFLGIKFDGAVAVVVSSGFSSWGIVIIVFIIVFAAFYALGIGTVPWQQSELFPQNVRGIGTSYATATNWAGSLVIASTFLTMLQNITPAGTFAFFAGLSCLSTIFCYFCYPELSGLELEEVQTILKDGFNIKASKALAKKRKQQVARVHELKYEPTQEIIEDI
B6: Pho84 nascent chains at the ribosome (protein, UniProt P25297 1-587)
chain: MSSVNKDTIHVAERSLHKEHLTEGGNMAFHNHLNDFAHIEDPLERRRLALESIDDEGFGWQQVKTISIAGVGFLTDSYDIFAINLGITMMSYVYWHGSMPGPSQTLLKVSTSVGTVIGQFGFGTLADIVGRKRIYGMELIIMIVCTILQTTVAHSPAINFVAVLTFYRIVMGIGIGGDYPLSSIITSEFATTKWRGAIMGAVFANQAWGQISGGIIALILVAAYKGELEYANSGAECDARCQKACDQMWRILIGLGTVLGLACLYFRLTIPESPRYQLDVNAKLELAAAAQEQDGEKKIHDTSDEDMAINGLERASTAVESLDNHPPKASFKDFCRHFGQWKYGKILLGTAGSWFTLDVAFYGLSLNSAVILQTIGYAGSKNVYKKLYDTAVGNLILICAGSLPGYWVSVFTVDIIGRKPIQLAGFIILTALFCVIGFAYHKLGDHGLLALYVICQFFQNFGPNTTTFIVPGECFPTRYRSTAHGISAASGKVGAIIAQTALGTLIDHNCARDGKPTNCWLPHVMEIFALFMLLGIFTTLLIPETKRKTLEEINELYHDEIDPATLNFRNKNNDIESSSPSQLQHEA
B7: Tna1 nascent chains at the ribosome (protein, UniProt P53322 1-534)
chain: MSNKFTMESPKHLVDDVLFISPTNDGSEEKPTEVTFQEDEGHDASLHNRSHDKKSELATEREIMATTTDDDGIPSPSHPMEKRVLRKMDIYLIPLMGMLYFLSNLDKSNIGNAEVAGLSKDIHLVGTQYNTCVTVFFATYVLFDPIGTNLLKIMGPPLMMSICLTCFGAISLGTAWVKNYAQLIVVRLLLGAFEGMIYPAINMYLSVCYRREQYALRFAFVFSAACLSSSFGGLIAYGCSKISGSLKDWQYIYIVEGCISLGFVPFYAFGLSKNLEDSWFFNKEEKEYISERYKTMNTFDPDEKFEWFQVWQAVKDVKTWASAVALFGIDLTTFGLTVFLPIIITSMGFTNVRAQLMTVPIYFLTAIVFFICAVWSDRIKLRSPFILGACLTTSIGIAIVLGSQVHGVRYFGVYILCMGIYVNAACNCLWLSGNTGNYFKRATALGINLFFGSGSGLVSGQIFVAKDKPRYIKGLSISLAFQVFSIFMTVVQIFLYKRENDKKKAIIDRCNELGEPIPYDERLSDKNPEFKYMY

biological target: Ssb1 (Stress-Seventy subfamily B, Hsp70 heat shock protein) (S. cerevisiae) (UniProt P11484); test: Ssb1-mediated selective ribosome profiling

| Binder | binding |
| --- | --- |
| B1 | binds |
| B2 | binds |
| B3 | binds |
| B4 | binds |
| B5 | binds |
| B6 | binds |
| B7 | binds |
